Some peptides are written in HELM: one residue between dots, names in brackets for other building blocks, links after the first $.

The nature of this data set: general procedure: Fmoc solid-phase peptide synthesis; H-Cys(Trt)-2-Chlorotrityl Resin (MRK); Rink Amide-AM Resin, 0.45-0.55 mmol/g (MRG); DCC/HOBt (MRK); HBTU/DIPEA (MRG, lauric acid coupling). To be noted: whole synthesis, scale of the general procedure 0.6 mmol (MRK), 2 mmol (MRG).

For “PEPTIDE1{C.Q.H.W.W.H.W.Y.C}$PEPTIDE1,PEPTIDE1,1:R3-9:R3$$$V2.0”, the “final HPLC purity” value is reported as “greater than 99%”.

The values are drawn from patent publication US10905735B2 (priority 2016, dated 2021).
